{"source": "the supplement of paper PMC5355238", "note": "Counter-ions that a name gives are not always drawn. This is one part of the list. Most entries show no effect beyond the scatter of the controls.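 Reh is a human leukemia cell line; the read-out is the median γH2AX antibody signal in S-phase cells by flow cytometry, with the score counting standard deviations from the median difference of each paired set of plates. Scores above 2.5 were called candidate hits, while scores below -2 mark compounds that lowered the MK1775-induced damage.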", "data": [{"tested_on": "Reh", "assay": "Z' of S-phase gammaH2AX difference (drug + MK1775 minus drug alone) (Z-score); higher = stronger synergistic S-phase DNA damage with MK1775", "conditions": "MK1775 concentration 400 nM; first compound 10 µM; 4 h", "values": [{"smiles": "C[C@H](CCC(=O)NCCS(=O)(=O)O)[C@H]1CC[C@H]2[C@@H]3[C@H](O)C[C@@H]4C[C@H](O)CC[C@]4(C)[C@H]3C[C@H](O)[C@]12C", "note": "[Sodium Taurocholate] + C=CCn1c(=O)c2cnc(Nc3ccc(N4CCN(C)CC4)cc3)nc2n1-c1cccc(C(C)(C)O)n1 [MK1775]", "Z' of S-phase gammaH2AX difference (Z-score)": "inactive: 0.0301"}, {"smiles": "Nc1ccccc1NC(=O)c1ccc(CNc2nccc(-c3cccnc3)n2)cc1", "note": "[Mocetinostat (MGCD0103)] + C=CCn1c(=O)c2cnc(Nc3ccc(N4CCN(C)CC4)cc3)nc2n1-c1cccc(C(C)(C)O)n1 [MK1775]", "Z' of S-phase gammaH2AX difference (Z-score)": "inactive: -0.0791"}, {"smiles": "CC1=C(C(=O)O)N2C(=O)[C@@H](NC(=O)[C@H](N)c3ccccc3)[C@H]2SC1", "note": "[Cephalexin hydrate] + C=CCn1c(=O)c2cnc(Nc3ccc(N4CCN(C)CC4)cc3)nc2n1-c1cccc(C(C)(C)O)n1 [MK1775]", "Z' of S-phase gammaH2AX difference (Z-score)": "inactive: 0.558"}, {"smiles": "CCCc1c(OCCCOc2ccc(OCC(=O)O)cc2)ccc(C(C)=O)c1O", "note": "+ C=CCn1c(=O)c2cnc(Nc3ccc(N4CCN(C)CC4)cc3)nc2n1-c1cccc(C(C)(C)O)n1 [MK1775]", "Z' of S-phase gammaH2AX difference (Z-score)": "inactive: 0.085"}, {"smiles": "O=c1c2ccccc2[nH]c(=S)n1CCN1CCC(=C(c2ccc(F)cc2)c2ccc(F)cc2)CC1", "note": "[Diacylglycerol Kinase Inhibitor II] + C=CCn1c(=O)c2cnc(Nc3ccc(N4CCN(C)CC4)cc3)nc2n1-c1cccc(C(C)(C)O)n1 [MK1775]", "Z' of S-phase gammaH2AX difference (Z-score)": "inactive: 0.182"}, {"smiles": "CCSC(N)=Nc1ccc(C(F)(F)F)cc1", "note": "[TFPI hydrochloride] + C=CCn1c(=O)c2cnc(Nc3ccc(N4CCN(C)CC4)cc3)nc2n1-c1cccc(C(C)(C)O)n1 [MK1775]", "Z' of S-phase gammaH2AX difference (Z-score)": "inactive: -0.27"}, {"smiles": "CC[C@@H]1Cc2cc(O)ccc2C2=C1c1ccc(O)cc1C[C@H]2CC", "note": "[(R,R)-cis-Diethyl tetrahydro-2,8-chrysenediol] + C=CCn1c(=O)c2cnc(Nc3ccc(N4CCN(C)CC4)cc3)nc2n1-c1cccc(C(C)(C)O)n1 [MK1775]", "Z' of S-phase gammaH2AX difference (Z-score)": "inactive: -0.503"}, {"smiles": "N=C(N)SCCN", "note": "[2-(2-Aminoethyl)isothiourea dihydrobromide] + C=CCn1c(=O)c2cnc(Nc3ccc(N4CCN(C)CC4)cc3)nc2n1-c1cccc(C(C)(C)O)n1 [MK1775]", "Z' of S-phase gammaH2AX difference (Z-score)": "inactive: -0.454"}, {"smiles": "COc1cc2ncnc(Nc3ccc(F)c(Cl)c3)c2cc1NC(=O)/C=C/CN1CCCCC1", "note": "+ C=CCn1c(=O)c2cnc(Nc3ccc(N4CCN(C)CC4)cc3)nc2n1-c1cccc(C(C)(C)O)n1 [MK1775]", "Z' of S-phase gammaH2AX difference (Z-score)": "inactive: -0.579"}, {"smiles": "Nc1nccc(-c2ccc3noc(-c4ccc(Cl)cc4)c3c2)n1", "note": "[PIM-1 Inhibitor 2] + C=CCn1c(=O)c2cnc(Nc3ccc(N4CCN(C)CC4)cc3)nc2n1-c1cccc(C(C)(C)O)n1 [MK1775]", "Z' of S-phase gammaH2AX difference (Z-score)": "inactive: -0.749"}, {"smiles": "CCCCC1C(=O)N(c2ccccc2)N(c2ccccc2)C1=O", "note": "[Phenylbutazone] + C=CCn1c(=O)c2cnc(Nc3ccc(N4CCN(C)CC4)cc3)nc2n1-c1cccc(C(C)(C)O)n1 [MK1775]", "Z' of S-phase gammaH2AX difference (Z-score)": "inactive: 0.199"}, {"smiles": "O=C(O)Cc1ccc(O)c(O)c1", "note": "[3,4-Dihydroxyphenylacetic acid] + C=CCn1c(=O)c2cnc(Nc3ccc(N4CCN(C)CC4)cc3)nc2n1-c1cccc(C(C)(C)O)n1 [MK1775]", "Z' of S-phase gammaH2AX difference (Z-score)": "inactive: 1.44"}, {"smiles": "Cc1ccc(C(=O)N(CCCN)[C@@H](c2nc3cc(Cl)ccc3c(=O)n2Cc2ccccc2)C(C)C)cc1", "note": "+ C=CCn1c(=O)c2cnc(Nc3ccc(N4CCN(C)CC4)cc3)nc2n1-c1cccc(C(C)(C)O)n1 [MK1775]", "Z' of S-phase gammaH2AX difference (Z-score)": "inactive: -0.656"}, {"smiles": "N=C(N)N1CCc2ccccc2C1", "note": "[Debrisoquin sulfate] + C=CCn1c(=O)c2cnc(Nc3ccc(N4CCN(C)CC4)cc3)nc2n1-c1cccc(C(C)(C)O)n1 [MK1775]", "Z' of S-phase gammaH2AX difference (Z-score)": "inactive: 0.0753"}, {"smiles": "C[C@@H](Oc1cc(-c2cnn(C3CCNCC3)c2)cnc1N)c1c(Cl)ccc(F)c1Cl", "note": "+ C=CCn1c(=O)c2cnc(Nc3ccc(N4CCN(C)CC4)cc3)nc2n1-c1cccc(C(C)(C)O)n1 [MK1775]", "Z' of S-phase gammaH2AX difference (Z-score)": "inactive: -0.74"}, {"smiles": "CC(C)C1C2CCC(C2)C1N", "note": "(configuration not stated) + C=CCn1c(=O)c2cnc(Nc3ccc(N4CCN(C)CC4)cc3)nc2n1-c1cccc(C(C)(C)O)n1 [MK1775]", "Z' of S-phase gammaH2AX difference (Z-score)": "inactive: 0.02"}, {"smiles": "Nc1c(S(=O)(=O)O)cc(Nc2ccc(Nc3nc(Cl)nc(Nc4cccc(S(=O)(=O)O)c4)n3)c(S(=O)(=O)O)c2)c2c1C(=O)c1ccccc1C2=O", "note": "[Reactive Blue 2] + C=CCn1c(=O)c2cnc(Nc3ccc(N4CCN(C)CC4)cc3)nc2n1-c1cccc(C(C)(C)O)n1 [MK1775]", "Z' of S-phase gammaH2AX difference (Z-score)": "inactive: 0.028"}, {"smiles": "CNCC[C@@H](Oc1ccccc1C)c1ccccc1", "note": "[Tomoxetine] + C=CCn1c(=O)c2cnc(Nc3ccc(N4CCN(C)CC4)cc3)nc2n1-c1cccc(C(C)(C)O)n1 [MK1775]", "Z' of S-phase gammaH2AX difference (Z-score)": "inactive: -0.438"}, {"smiles": "c1ccc(CN2CCC3(CCCc4ccccc43)CC2)cc1", "note": "[L-687,384 hydrochloride] + C=CCn1c(=O)c2cnc(Nc3ccc(N4CCN(C)CC4)cc3)nc2n1-c1cccc(C(C)(C)O)n1 [MK1775]", "Z' of S-phase gammaH2AX difference (Z-score)": "inactive: -0.121"}, {"smiles": "COc1nc(C)cnc1NS(=O)(=O)c1cccnc1-c1ccc(-c2nnco2)cc1", "note": "[Zibotentan (ZD4054)] + C=CCn1c(=O)c2cnc(Nc3ccc(N4CCN(C)CC4)cc3)nc2n1-c1cccc(C(C)(C)O)n1 [MK1775]", "Z' of S-phase gammaH2AX difference (Z-score)": "inactive: 0.347"}, {"smiles": "C[N+](C)(C)CCC(=O)c1cccc2ccccc12", "note": "[2-(alpha-Naphthoyl)ethyltrimethylammonium iodide] + C=CCn1c(=O)c2cnc(Nc3ccc(N4CCN(C)CC4)cc3)nc2n1-c1cccc(C(C)(C)O)n1 [MK1775]", "Z' of S-phase gammaH2AX difference (Z-score)": "inactive: 0.0243"}, {"smiles": "CN1[C@@H]2CC[C@H]1C[C@@H](OC(c1ccccc1)c1ccccc1)C2", "note": "[Benztropine mesylate] + C=CCn1c(=O)c2cnc(Nc3ccc(N4CCN(C)CC4)cc3)nc2n1-c1cccc(C(C)(C)O)n1 [MK1775]", "Z' of S-phase gammaH2AX difference (Z-score)": "inactive: 0.438"}]}]}
